Some entries share one result that the patent states for a list of compounds. For part of these data: For at least one compound, name, drawing or mass did not settle the structure. Some ranges recur; such a range may be that of the whole group of compounds.
Key:
Type in all cases: cell-based
[1] = tested on: KP-4 pancreatic cancer cell line; assay: Cell viability assay (CellTiter Glo), KP-4; conditions: KP-4 versus A549
Method: Cell viability assay was performed to assess the potency of the ferroptosis inducer compounds in various cancer cell lines with K-Ras mutations. […] A series of 9 different concentrations of compound stocks (500×) were created by 3-fold serial dilution in DMSO. […] After 96 hours of incubation, 50 μL of CellTiter Glo reagent (Promega) was added to each well and luminescence was measured after 10 minutes using EnVision (PerkinElmer). […] […] IC50, relative IC50, or % of top inhibition was calculated.

Panc1 cells = assay: Combination proliferation assay with PKC activator, Panc1
Method: (§1) Cell viability assay was performed to assess the potency of the ferroptosis inducer compounds in various cancer cell lines with K-Ras mutations. Cells at a density of 1,000-10,000 cells/well were seeded in 96-well plates and incubated at 37° C. overnight. A series of 9 different concentrations of compound stocks (500×) were created by 3-fold serial dilution in DMSO. These compounds were further diluted in culture media and then added to cells so that the final DMSO concentration was equal to 0.25% or less. After 96 hours of incubation, 50 μL of CellTiter Glo reagent (Promega) was added to each well and luminescence was measured after 10 minutes using EnVision (PerkinElmer). K101A (a PKC activator) was used as the reference compound titrated from top concentration of 30 μM. All compounds were tested initially from 30 μM as the top concentration in duplicates (range of 4.6 nM-30 μM). […] Data was analyzed using XL-fit software (ID Business Solutions Ltd.). IC50, relative IC50, or % of top inhibition was calculated.
(§2) Therefore, whether PKC activators synergize or antagonize with ferroptosis inducers can be tested empirically.

Capan-1 cells = assay: Combination proliferation assay with PKC activator, Capan-1
Method: as §1, §2

Row | Compound | selectivity for KP-4 over A549 [1] | % of top inhibition by K101A or K102 without ferroptosis inducer (Panc1 cells) | % of top inhibition by K101A or K102 without ferroptosis inducer (Capan-1 cells)
1 | C[C@@H]1CC[C@H]2[C@@H](C)C(=O)O[C@@H]3O[C@@]4(C)CC[C@@H]1[C@]32OO4 [Artemisinin] | 5-15 fold |  | 
2 | C/C=C(/C)C(=O)O[C@H]1C(C)=C[C@]23C(=O)[C@@H](C=C(CO)[C@@H](O)[C@]12O)[C@H]1[C@@H](C[C@H]3C)C1(C)C [K102, ingenol-3-angelate] |  | 50-60% | 40-50%
